From publication PMC7692554 come the findings set out here.

Protein sequences, listed by entry. Tags and fused reporters are not part of them. Lines headed by an entry give the natural chain unless they say otherwise; changes in a name come on top.
UniProt O84090: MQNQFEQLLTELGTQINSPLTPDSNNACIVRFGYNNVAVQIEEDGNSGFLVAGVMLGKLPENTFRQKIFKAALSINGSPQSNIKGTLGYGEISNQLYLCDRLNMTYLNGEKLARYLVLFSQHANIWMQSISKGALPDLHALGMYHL

Test [1] has as its target T1, Scc4 with an N-terminal His6-tag (His6-Scc4) (Chlamydia trachomatis) (UniProt O84670).
T1 sequence: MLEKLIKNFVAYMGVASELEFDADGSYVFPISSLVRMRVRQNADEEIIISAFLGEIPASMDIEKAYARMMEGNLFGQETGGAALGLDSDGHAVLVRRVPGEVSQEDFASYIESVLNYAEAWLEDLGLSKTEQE
Put plainly: SEC; purified complex (co-expressed and co-purified; the renatured complex too), ProteoSEC 16/60 3-70 HR, NMR buffer (50 mM sodium phosphate, 10 mM DTT, pH 7.3); also after 2 days at room temperature; both purified.

Test [2] addresses T2, Scc4 (specific chlamydia chaperone 4) (Chlamydia trachomatis) (UniProt O84670).
T2 sequence: T1 sequence
The test is described as follows: NMR titration; 1H,15N-HSQC of 0.5 mM 15N-Scc4 with 0, 0.25, 0.5, 1.0, 1.5 and 2.0 moles of Scc1-FLAG per mole; NMR buffer (50 mM sodium phosphate, 10 mM DTT, pH 7.3), 300 K; both purified.

The target of test [3] is T1, Scc4 with an N-terminal His6-tag (His6-Scc4) (Chlamydia trachomatis). The test is described as follows: pull-down; the two proteins co-expressed in E. coli; complex purified from clarified lysate by Ni-IMAC through the His6-tagged partner (Tris buffer pH 8.0, 300 mM NaCl), read by SDS-PAGE.
In test [4] the target is Scc1 with an N-terminal His6-tag (His6-Scc1) (Chlamydia trachomatis) (UniProt O84090). The test is described as follows: pull-down; on-column association: 15N-Scc4 in clarified lysate loaded on His6-Scc1 immobilised on Ni-IMAC resin, washed with Tris buffer, eluted with 500 mM imidazole, SDS-PAGE; only the target purified.
For test [5] the target is unchanged. Put plainly: native gel or EMSA; purified in vivo-associated and renatured complexes, after purification and after 2 days at room temperature; 4-20% Tris/glycine gel, 25 mM Tris, 192 mM glycine, pH 8.3; purified Scc4 as migration reference; both purified.
For test [6] the target is unchanged. Put plainly: SEC; purified complex (co-expressed and co-purified; the renatured complex too), ProteoSEC 16/60 3-70 HR, NMR buffer (50 mM sodium phosphate, 10 mM DTT, pH 7.3); also after 2 days at room temperature; both purified.
The target is the same in test [7]. The test is described as follows: NMR (1H,15N-HSQC of free and bound protein compared); renatured, purified 15N-Scc4:His6-Scc1 complex at 0.35 mM against free 15N-Scc4; NMR buffer, 300 K; both purified.
The target is the same in test [8]. The test is described as follows: native gel or EMSA + SEC; purified on-column-associated complex (Scc4 from lysate, immobilised His6-Scc1), after purification and after 2 days at room temperature; both purified.
Test [9] has the same target. Put plainly: pull-down; the two proteins co-expressed in E. coli; complex purified from clarified lysate by Ni-IMAC through the His6-tagged partner (Tris buffer pH 8.0, 300 mM NaCl), read by SDS-PAGE.
Test [10] has the same target. The test is described as follows: pull-down; renatured association: purified His6-Scc1 inclusion bodies denatured in 6 M GuHCl, diluted to 2 M GuHCl with refolding buffer, added dropwise to clarified Scc4 lysate (final 0.75-1.0 M GuHCl); Ni-IMAC, SDS-PAGE; only the target purified.

No constants are given. Whether binding was seen depends on the method and setting. A result given as binding can be weak or reduced; the word gives no strength. For some of these results: In cells and extracts the contact can be indirect. For some of these results: Tags and fused reporters may be left off the sequences shown.

For the molecule “Scc1 with a C-terminal FLAG tag (Scc1-FLAG) (from UniProt O84090)”, the binding entry in [1] is reported as “binds”; in [2] it was “binds weakly”; in test [3] it was “binds”.

B1: Scc4 (specific chlamydia chaperone 4) (protein, UniProt O84670 1-133)
chain: T1 sequence
B1: the binding entry in test [4], in test [5], in [6], in test [7], in test [8] and in test [9] was “binds” each time. For the same molecule, in test [10], the binding entry is on record as “binds”.
